# Assay results taken from PubChem BioAssay AID1508600 (Functional Genomics Laboratory (NCATS/FGL), 2020).
# In all, about 53,000 sequences went through this assay and about 3,700 (7%) were called active.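 Rule for the calls: active = gene knockdowns whose robust z-score for IL-1 alpha signal is at least 2 or at most -2, so actives lie on both sides; inactive = the rest.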 The list shows a part of the results.
# Test: Components of the Cytosolic LPS Sensing Pathway: Gene Identification via Genome-wide siRNA Screen;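 note: robust z of the log signal after scaling to non-targeting control siRNA wells of the plate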
# Details: RAW264.7 macrophages, IL-1a HTRF, actives lie on both sides, screened at 100 nM (by protocol), cells primed 5 h with Pam3CSK4 first
# Procedure, shortened: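 RAW264.7 mouse macrophages reverse-transfected with single siRNAs (100 nM final) for 48h, primed with Pam3CSK4 for 5 hours, then transfected with LipidA for 24 hour. Supernatant IL-1a read by HTRF; values normalized to negative-control median, log-transformed robust z-scores.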
row,Sequence,z-score
1,GGUAAAUGAGAAAAACCUCTT against Gda,inactive: -0.482
2,GCUGUGACCCUUGUCCUUUTT against Ptms,inactive: -0.298
3,CGGCACUAGGAAGCUUUUATT against Inpp5a,inactive: -0.185
4,GGAUAACCAACAAGGUUUUTT against Mgst1,inactive: 0.701
5,GCAUCUACAAAUGUUUCAGTT against Zc3h12d,inactive: 0.854
6,GGUCAUAGAGACAGACUACTT against Lcn12,inactive: -0.378
7,CCCACAAUGCUGCUAUUAUTT against Gmfb,inactive: 0.505
8,GCUCUUAGAGAUUUGUUUGTT against Usp14,inactive: 0.389
9,GGGUGACAGUGAUAUCCAGTT against Mc1r,inactive: 0.279
10,GGAUGCCUUCUAUACACUATT against Hras,inactive: -1.33
11,GGAUCAUUGUCAAAGUUCUTT against Zfp959,inactive: -0.772
12,GCCAGUGGUGUUUGCAUAGTT against Scrn1,inactive: 1.55
13,CCGGAGAUAUAUCAAUAUUTT against Pcdhga3,inactive: 0.658
14,GCCUUCAGGACGAUUUAUUTT against Pla2g7,inactive: 1.19
15,GGGAAACCACAGUAGUCUGTT against Gk,inactive: -0.416
16,GCUUAUAAGAGAAAUGACUTT against 4921511C20Rik,inactive: -0.429
17,CCACAAAUGAGAACUUCCCTT against Szrd1,inactive: -0.61
18,GGCAAGAAGUAGGAAGACUTT against Nucb2,inactive: -0.907
19,CGAGCUCCUUCAUAUUAAATT against Rapgef4,inactive: 0.395
20,GGUUUGUGUCUAAGGAAUUTT against Klhdc7a,inactive: -0.203
21,CCUGUCCAGGGUUUGACCATT against Man2c1,inactive: -1.12
22,CCCUGCUUACGAUUGAUAGTT against Ccr1l1,inactive: 0.208
23,GGAAGAACAGAGGCAGAAGTT against Trpv3,inactive: -0.629

row,Sequence,z-score
1,GCGUGAAUCCGAUCCAACUTT against Spag5,inactive: -1.27
2,GCUAAUAGGGUGCUUUAAUTT against Rab33b,inactive: 0.91
3,GGGAGACAUCCCGAUACAGTT against Mlf2,inactive: 1.19
4,GCUAAGUUUCACCCAAAGGTT against Dennd2c,inactive: 1.42
5,AUAUGUCUGUUUCUGCGAATT against Vmn1r189,inactive: -0.127
6,GGUCCUACAGUCCAUAGGUTT against Fstl4,inactive: 0.667
7,CGCAGACAGUUUGAGGCUGTT against Gpbp1,active: -2.34
8,GCUUUGGAGAGUCAGUAAATT against Mdn1,inactive: 0.312
9,GGGAAAACCAUACAAAAUATT against Olfr228,inactive: -0.525
10,CCUGUACUGAACUACUUGATT against Kctd5,inactive: 0.0535
11,GGAGGCAGAGAAGAUGAAATT against Pacsin3,inactive: -0.282
12,CCCGCUCCUGUUUAGAUGUTT against Lsg1,inactive: 0.651
13,GGUAUUUCACUGGUUACGUTT against B3galt1,inactive: 0.959
14,GGACUUCUACGACUUCAAGTT against Gpx7,inactive: 0.747
15,CCGUGGAUUAUUUUCAACGTT against Hcn1,inactive: 0.299
16,CCAACAAAUUCAAUCAGGCTT against Nrip3,inactive: -0.0229
17,GGAAAGGAUACUAUGAGGATT against Ttc29,inactive: -1.25
18,GGGAGCUGCUAAAAUAAACTT against Mtcp1,inactive: 0.278
19,GGAGAACAUGUUGAAGUAUTT against Atp8a1,inactive: -0.532
20,GGAUGAUGUGAUGAAGAUCTT against Fgfr4,inactive: -0.0955
21,GCAACAAGCUGGUUGGCUUTT against Ccin,inactive: 0.414
22,GCCAAAUACUUUUUUACCCTT against Slc38a2,inactive: 0.682
23,CAACACUGCCUCUUGCACATT against Vmn1r213,inactive: -0.257

# Individual results from the list:
# Value for GGCAAGAAGUAGGAAGACUTT against Nucb2 under z-score: inactive: -0.907
# Value for GGAUGCCUUCUAUACACUATT against Hras under z-score: inactive: -1.33
# Value for GGAGAACAUGUUGAAGUAUTT against Atp8a1 under z-score: inactive: -0.532
# Value for GGAAGAACAGAGGCAGAAGTT against Trpv3 under z-score: inactive: -0.629
# Value for CGGCACUAGGAAGCUUUUATT against Inpp5a under z-score: inactive: -0.185
# Value for CCUGUCCAGGGUUUGACCATT against Man2c1 under z-score: inactive: -1.12

# Further records.

row,Sequence,z-score
1,GGCAUCUCUAUCAAGUUGCTT against Rps17,inactive: 0.534
2,GCCAGAAUGGAGUUACACCTT against Arl4d,inactive: -0.753
3,GGCCUUUUUUCUAUAUCUATT against Galnt3,inactive: -0.637
4,GGCAUUGAAUUAAAGAUACTT against Myct1,inactive: -1.06
5,GGAGCCUUUCUAGCUACCUTT against Dlk2,inactive: 0.00631
6,GGUCGAGUGCAAGUUGAAGTT against Taf13,inactive: 1.85
7,GGUGCUGUCAUUUGAAUUCTT against Atp13a1,inactive: 0.266
8,GGUCAAGUUCACCAAGAUATT against Aldh1a3,inactive: -1.16
9,GGAUGAAAGAGCUAUUCUUTT against Cnot8,inactive: -0.00551
10,GGCAAACUCAUCCAUGUGCTT against Fabp3,inactive: -1.53
11,GGAUCCAGAUACUCCCAAGTT against Camp,inactive: -1.08
12,GGGCAAGCCGGUUUCAUUUTT against Col16a1,inactive: 1.05
13,GGCCUUGGGAAGGAAAGAGTT against Mospd1,inactive: 0.222
14,GGUGGAGAAAUCUGCUAAUTT against Lta4h,inactive: 1.99
15,GGAGAAUGACACCAGGUCUTT against Arc,inactive: -0.124
16,GGUCAGAUGUUCUGGAAAATT against Ctsj,inactive: 1.12
17,GGUGAAGAGCAUCAUAACCTT against Fabp4,inactive: -1.75
18,GCCUUUUCAUUGCACCUCCTT against Cdc42se2,inactive: 0.384
19,GCCAAUCUGAAAGGAUAUUTT against Tpst2,inactive: 0.96
20,GGACAUGAUGAGUGACCUGTT against Elmo1,inactive: -0.135
21,CCUCCUACAUGUUCACAUUTT against Olfr1367,inactive: -0.626
22,GCAUGUAGCCCUAAUUUUGTT against Dnajc14,inactive: -0.583
